Data from article doi:10.1101/2022.08.12.503154.
These are yes or no findings as the source states them, for the method shown. Binding seen in cells or lysates may run through a third protein. Some results given as binding are weak or reduced against the parent protein; the word gives no strength.

Chains of the proteins cited; added tags and fusions are not shown. Lines headed by an entry give the natural chain unless they say otherwise; changes in a name come on top.
UniProt P05556: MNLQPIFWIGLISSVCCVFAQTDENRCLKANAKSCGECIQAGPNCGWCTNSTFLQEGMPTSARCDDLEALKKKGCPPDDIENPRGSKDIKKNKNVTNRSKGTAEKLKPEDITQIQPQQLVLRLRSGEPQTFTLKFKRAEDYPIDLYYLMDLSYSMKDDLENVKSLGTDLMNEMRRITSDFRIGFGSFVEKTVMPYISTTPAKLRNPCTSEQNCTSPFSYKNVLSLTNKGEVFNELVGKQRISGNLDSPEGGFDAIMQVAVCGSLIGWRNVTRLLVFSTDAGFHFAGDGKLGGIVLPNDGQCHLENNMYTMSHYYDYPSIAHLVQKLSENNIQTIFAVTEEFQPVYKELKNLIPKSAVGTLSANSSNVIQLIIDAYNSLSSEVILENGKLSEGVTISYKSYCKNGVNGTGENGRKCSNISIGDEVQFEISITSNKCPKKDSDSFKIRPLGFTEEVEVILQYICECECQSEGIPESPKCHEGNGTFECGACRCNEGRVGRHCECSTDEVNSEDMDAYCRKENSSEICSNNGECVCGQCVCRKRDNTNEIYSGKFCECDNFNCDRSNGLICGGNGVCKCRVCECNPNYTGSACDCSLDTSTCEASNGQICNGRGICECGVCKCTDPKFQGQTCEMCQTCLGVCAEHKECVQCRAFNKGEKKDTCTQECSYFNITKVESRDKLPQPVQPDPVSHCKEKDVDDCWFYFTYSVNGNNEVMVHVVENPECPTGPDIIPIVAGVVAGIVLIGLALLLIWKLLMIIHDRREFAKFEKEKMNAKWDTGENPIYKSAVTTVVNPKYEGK

What was measured:
[1] = target: CD98 heavy chain (CD98hc) (human (endogenous in A549 and human lung tissue)) (UniProt P08195); experiment: co-IP
[2] = target: galectin-3 (human (endogenous in A549 and human lung tissue)) (UniProt P17931); experiment: proximity ligation
[3] = target: galectin-3 (human (endogenous in A549 and human lung tissue)) (UniProt P17931); experiment: co-IP

Substance	binding [1]	binding [2]	binding [3]
galectin-3 (from UniProt P17931 1-250)	binds	–	–
CD98 heavy chain (CD98hc) (from UniProt P08195 1-529)	–	binds	binds
β1-integrin (from UniProt P05556 21-798)	–	binds	binds
